Our source for the binding values is article PMC4990744.

Sequences of proteins named here, by UniProt entry; tags and fusion partners are left off.
UniProt O88275: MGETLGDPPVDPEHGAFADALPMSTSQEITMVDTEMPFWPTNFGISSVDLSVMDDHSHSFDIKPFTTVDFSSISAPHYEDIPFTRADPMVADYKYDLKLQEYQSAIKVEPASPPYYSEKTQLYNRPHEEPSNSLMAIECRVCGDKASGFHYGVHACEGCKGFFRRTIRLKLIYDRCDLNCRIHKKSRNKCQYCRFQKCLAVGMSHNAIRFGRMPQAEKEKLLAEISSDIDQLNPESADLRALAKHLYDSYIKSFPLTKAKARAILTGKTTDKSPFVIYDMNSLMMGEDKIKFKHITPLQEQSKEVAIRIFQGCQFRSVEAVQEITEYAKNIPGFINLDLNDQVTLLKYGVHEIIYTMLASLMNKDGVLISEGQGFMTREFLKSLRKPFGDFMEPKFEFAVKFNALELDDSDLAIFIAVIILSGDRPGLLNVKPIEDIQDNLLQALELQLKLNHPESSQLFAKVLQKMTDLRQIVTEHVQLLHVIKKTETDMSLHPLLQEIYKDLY
UniProt Q7TQN4: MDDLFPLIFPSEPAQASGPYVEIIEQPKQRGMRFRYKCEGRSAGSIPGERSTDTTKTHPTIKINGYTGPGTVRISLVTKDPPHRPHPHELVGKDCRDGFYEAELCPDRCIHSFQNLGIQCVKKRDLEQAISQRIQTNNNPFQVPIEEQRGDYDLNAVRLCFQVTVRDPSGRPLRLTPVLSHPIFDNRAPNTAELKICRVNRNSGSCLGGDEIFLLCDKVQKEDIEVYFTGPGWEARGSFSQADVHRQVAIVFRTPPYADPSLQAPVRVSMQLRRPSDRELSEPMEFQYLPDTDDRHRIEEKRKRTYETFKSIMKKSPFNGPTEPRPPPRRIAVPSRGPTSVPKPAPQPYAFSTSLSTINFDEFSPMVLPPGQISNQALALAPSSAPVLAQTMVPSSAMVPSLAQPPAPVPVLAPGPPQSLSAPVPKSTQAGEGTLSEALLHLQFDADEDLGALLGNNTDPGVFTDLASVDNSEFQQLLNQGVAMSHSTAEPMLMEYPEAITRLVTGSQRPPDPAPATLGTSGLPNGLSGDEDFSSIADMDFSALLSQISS

The assay has as its target peroxisome proliferator-activated receptor gamma (rat (endogenous in primary hippocampal neuronal/glial cultures)) (UniProt O88275). The assay can be described thus: co-IP; PPARγ antibody immobilised on antibody coupling gel (Pierce Co-IP kit); nuclear extracts (300 μg protein) of primary mixed neuronal/glial cultures incubated 2 h; blot with NF-κB or PPARγ antibody; cells stimulated with Aβ1-42 25 μM, pre-treated with curcumin 10 μM, with or without GW9662 1 μM or PPARγ siRNA.

These are yes or no findings as the source states them, for the method shown. Binding seen in cells or lysates may run through a third protein. Some entries that bind do so weakly or less than the wild type.

With “NF-κB p65 subunit (from UniProt Q7TQN4 1-550)”, the binding entry is given as “binds”.
